Results as given in patent US20240000939A1, “METHODS OF PERSONALIZED PRECONDITIONING FOR CELL THERAPY” (priority 2021, published 2024).
Entries after “also recorded” stand apart in the source; their conditions may differ. At least one compound was matched to its structure with a doubt left.

Legend:
[1] = Estimated fludarabine exposure (AUC) calculated with a population PK model; design: species or system human; settings: AUC ≥13.8 mg*hr/L; 102/152
[2] = system: R/R B-cell ALL (B-ALL); test: Retrospective PRWCC analysis: response, relapse, composite endpoint (relapse or loss of BCA) and overall survival after tisagenlecleucel; format: in vivo, human

## Nc1nc(F)nc2c1ncn2[C@@H]1O[C@H](CO)[C@@H](O)[C@@H]1O [fludarabine]
[1]
  patients with optimal fludarabine exposure: 67%
[2]; patients with high pre-treatment disease burden
  association of fludarabine AUC ≥13.8 mg·hr/L with OS: improved OS
[2]; prior to tisagenlecleucel
  association of fludarabine AUC ≥13.8 mg·hr/L with relapse: lower risk of relapse; also recorded: lower relapse rates; also recorded: reduced disease relapse
[2]; regardless of pre-treatment disease burden
  association of fludarabine AUC ≥13.8 mg·hr/L with B-cell aplasia: protected BCA
